# Laboratory results taken from the supplement of paper PMC8728848.
# The other results are listed elsewhere or left out.
# B1: CcfD (Bacteroides fragilis), Q5L9G4 (protein)
# chain: MKKQNSIYTLLIALLCFVSSCDYLGVSDQLAGGLQNTEQVFDNVSYTKRWYANVFAGIPDYSGINSVNVGAFKNPWTGMCDELVVGYGNSSKYNNSDRNAANMGFHRYGDCYKYIRQANIFLQKAHPIMTTGTQGDQLLEDELTQMKANVRFMRAFYHYLLFEQYGPIILVKDKIYNATEDQDVPRNTVDEVIEYIDSELTAVASELTQEPIFEDKDYRAWPTKGVALAVRAKLWLYAASPLLNGGYREALSVTNPDGTRLFPDYDAGKWEKALAACKDFIDYAEAGRYELYKEYKDDNGAVIDPDKSVYNLFQKYTHEIIWATANNDWGGMNGDAFDRRIAPRCEKNGLGSTGVTQELVDAFYMKDGFPVSATAYLPQSTLYQEEGYGTYKDQNDNFSKKYTNVTVSNRYLNREPRFYNTVFFNGRQWPVSCNQVLFYNGGNSGVQEGQATLTGYMLFKRFNRSVSLTNPGVASQFRPSIIFRLADFYLMYAEAANEVNPNDARVLKYLNLVRERAGLPDIETLNPAIRGNQELQRAAIQRERQIELATEGQRYFDVRRWMIADKNGEGRQNGYVHGMNVRGESNDKEDFNRIVEASQIVFNRKMYLYPMPDSEMRKTKNLVQNPGW
# Legend:
# Assay in all cases: glycan array binding signal (z-score within array); higher = stronger binding
# Conditions in all cases: glycan notation: IUPAC condensed, linker removed
# [1] = target: Gal(b1-4)GalNAc(b1-3)[Fuc(a1-2)]Gal(b1-4)GlcNAc
# How it was run: (§1)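 Glycan array binding is given as a within-array Z-score, which can be read as non-binding when negative. The arrays, 3228 of them, came from the Consortium for Functional Glycomics database and were retained only where the protein sequence was available. Z-scores were averaged across arrays of the same protein sequence at different concentrations or buffers and across linkers.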
# [2] = target: Gal(b1-4)Glc
# How it was run: as §1
# [3] = target: Gal(b1-4)Glc6S
# How it was run: as §1
# [4] = target: Gal(b1-4)GlcNAc
# How it was run: as §1
# [5] = target: Gal(b1-4)GlcNAc(a1-6)Gal(b1-4)GlcNAc
# How it was run: as §1
# [6] = target: Gal(b1-4)GlcNAc(b1-2)Man
# How it was run: as §1
# [7] = target: Gal(b1-4)GlcNAc(b1-2)Man(a1-3)Man(b1-4)GlcNAc(b1-4)GlcNAc
# How it was run: as §1
# [8] = target: Gal(b1-4)GlcNAc(b1-2)Man(a1-3)[Gal(b1-4)GlcNAc(b1-2)Man(a1-6)]Man(b1-4)GlcNAc(b1-4)GlcNAc
# How it was run: as §1
# [9] = target: Gal(b1-4)GlcNAc(b1-2)Man(a1-3)[Gal(b1-4)GlcNAc(b1-2)Man(a1-6)]Man(b1-4)GlcNAc(b1-4)[Fuc(a1-6)]GlcNAc
# How it was run: as §1
# [10] = target: Gal(b1-4)GlcNAc(b1-2)Man(a1-3)[Gal(b1-4)GlcNAc(b1-2)Man(a1-6)][Gal(b1-4)GlcNAc(b1-4)]Man(b1-4)GlcNAc(b1-4)[Fuc(a1-6)]GlcNAc
# How it was run: as §1
# [11] = target: Gal(b1-4)GlcNAc(b1-2)Man(a1-3)[Gal(b1-4)GlcNAc(b1-2)Man(a1-6)][GlcNAc(b1-4)]Man(b1-4)GlcNAc(b1-4)[Fuc(a1-6)]GlcNAc
# How it was run: as §1
# [12] = target: Gal(b1-4)GlcNAc(b1-2)Man(a1-3)[GlcNAc(b1-2)Man(a1-6)]Man(b1-4)GlcNAc(b1-4)GlcNAc
# How it was run: as §1
# [13] = target: Gal(b1-4)GlcNAc(b1-2)Man(a1-3)[GlcNAc(b1-4)][Gal(b1-4)GlcNAc(b1-2)Man(a1-6)]Man(b1-4)GlcNAc(b1-4)GlcNAc
# How it was run: as §1
# [14] = target: Gal(b1-4)GlcNAc(b1-2)Man(a1-3)[Man(a1-6)]Man(b1-4)GlcNAc(b1-4)GlcNAc
# How it was run: as §1
# [15] = target: Gal(b1-4)GlcNAc(b1-2)Man(a1-6)Man(b1-4)GlcNAc(b1-4)GlcNAc
# How it was run: as §1
# [16] = target: Gal(b1-4)GlcNAc(b1-2)Man(a1-6)[GlcNAc(b1-2)Man(a1-3)]Man(b1-4)GlcNAc(b1-4)GlcNAc
# How it was run: as §1
# [17] = target: Gal(b1-4)GlcNAc(b1-2)Man(a1-6)[Man(a1-3)]Man(b1-4)GlcNAc(b1-4)GlcNAc
# How it was run: as §1
# [18] = target: Gal(b1-4)GlcNAc(b1-2)[Gal(b1-4)GlcNAc(b1-4)]Man(a1-3)[Gal(b1-4)GlcNAc(b1-2)Man(a1-6)]Man(b1-4)GlcNAc(b1-4)GlcNAc
# How it was run: as §1
# [19] = target: Gal(b1-4)GlcNAc(b1-2)[Gal(b1-4)GlcNAc(b1-4)]Man(a1-3)[Gal(b1-4)GlcNAc(b1-2)[Gal(b1-4)GlcNAc(b1-6)]Man(a1-6)]Man(b1-4)GlcNAc(b1-4)GlcNAc
# How it was run: as §1
# [20] = target: Gal(b1-4)GlcNAc(b1-2)[Gal(b1-4)GlcNAc(b1-4)]Man(a1-3)[GlcNAc(b1-4)][Gal(b1-4)GlcNAc(b1-2)Man(a1-6)]Man(b1-4)GlcNAc(b1-4)GlcNAc
# How it was run: as §1
# [21] = target: Gal(b1-4)GlcNAc(b1-2)[Gal(b1-4)GlcNAc(b1-4)]Man(a1-3)[GlcNAc(b1-4)][Gal(b1-4)GlcNAc(b1-2)[Gal(b1-4)GlcNAc(b1-6)]Man(a1-6)]Man(b1-4)GlcNAc(b1-4)GlcNAc
# How it was run: as §1
# [22] = target: Gal(b1-4)GlcNAc(b1-2)[Gal(b1-4)GlcNAc(b1-6)]Man(a1-6)[Gal(b1-4)GlcNAc(b1-2)Man(a1-3)]Man(b1-4)GlcNAc(b1-4)GlcNAc
# How it was run: as §1
# [23] = target: Gal(b1-4)GlcNAc(b1-2)[Gal(b1-4)GlcNAc(b1-6)]Man(a1-6)[Gal(b1-4)GlcNAc(b1-2)Man(a1-3)]Man(b1-4)GlcNAc(b1-4)[Fuc(a1-6)]GlcNAc
# How it was run: as §1
# [24] = target: Gal(b1-4)GlcNAc(b1-2)[Gal(b1-4)GlcNAc(b1-6)]Man(a1-6)[GlcNAc(b1-4)][Gal(b1-4)GlcNAc(b1-2)Man(a1-3)]Man(b1-4)GlcNAc(b1-4)GlcNAc
# How it was run: as §1
# [25] = target: Gal(b1-4)GlcNAc(b1-2)[Gal(b1-4)GlcNAc(b1-6)]Man(a1-6)[GlcNAc(b1-4)][Gal(b1-4)GlcNAc(b1-2)[Gal(b1-4)GlcNAc(b1-4)]Man(a1-3)]Man(b1-4)GlcNAc(b1-4)[Fuc(a1-6)]GlcNAc
# How it was run: as §1
# [26] = target: Gal(b1-4)GlcNAc(b1-3)Gal(b1-3)GalNAc
# How it was run: as §1
# [27] = target: Gal(b1-4)GlcNAc(b1-3)Gal(b1-3)GlcNAc
# How it was run: as §1
# [28] = target: Gal(b1-4)GlcNAc(b1-3)Gal(b1-4)Glc
# How it was run: as §1
# [29] = target: Gal(b1-4)GlcNAc(b1-3)Gal(b1-4)GlcNAc
# How it was run: as §1
# [30] = target: Gal(b1-4)GlcNAc(b1-3)Gal(b1-4)GlcNAc(b1-2)Man(a1-3)[Gal(b1-4)GlcNAc(b1-3)Gal(b1-4)GlcNAc(b1-2)Man(a1-6)]Man(b1-4)GlcNAc(b1-4)GlcNAc
# How it was run: as §1
binder,measurement,setting,value
B1,glycan array binding signal (z-score),[1],-0.424
same,glycan array binding signal (z-score),[2],-0.056
same,glycan array binding signal (z-score),[3],-0.46
same,glycan array binding signal (z-score),[4],-0.721
same,glycan array binding signal (z-score),[5],-0.108
same,glycan array binding signal (z-score),[6],0.03
same,glycan array binding signal (z-score),[7],2.03
same,glycan array binding signal (z-score),[8],-0.424
same,glycan array binding signal (z-score),[9],-0.089
same,glycan array binding signal (z-score),[10],3.04
same,glycan array binding signal (z-score),[11],-0.995
same,glycan array binding signal (z-score),[12],-0.89
same,glycan array binding signal (z-score),[13],-0.384
same,glycan array binding signal (z-score),[14],-0.259
same,glycan array binding signal (z-score),[15],-1.05
same,glycan array binding signal (z-score),[16],1.38
same,glycan array binding signal (z-score),[17],-0.535
same,glycan array binding signal (z-score),[18],1.14
same,glycan array binding signal (z-score),[19],-0.673
same,glycan array binding signal (z-score),[20],-0.706
same,glycan array binding signal (z-score),[21],-0.43
same,glycan array binding signal (z-score),[22],-0.896
same,glycan array binding signal (z-score),[23],-0.818
same,glycan array binding signal (z-score),[24],-0.122
same,glycan array binding signal (z-score),[25],-0.594
same,glycan array binding signal (z-score),[26],-0.798
same,glycan array binding signal (z-score),[27],-1.23
same,glycan array binding signal (z-score),[28],0.627
same,glycan array binding signal (z-score),[29],-1.01
same,glycan array binding signal (z-score),[30],0.059

# Given tab-delimited: entries from further up.
binder	measurement	setting	value
B1	glycan array binding signal (z-score)	[22]	-0.896
same	glycan array binding signal (z-score)	[23]	-0.818
